The other results are listed elsewhere or left out. The main result of the screen is listed elsewhere. These columns were measured beside it and carry no call. The list favours compounds with an active or inconclusive main result. Potencies come from curve fits of mixed quality, noted in brackets.
Assay: qHTS Assay for Lipid Storage Modulators in Drosophila S3 Cells;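 as to cell number change: cells counted by Cell Tracker Red CMTPX staining in the red channel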
Conditions: BODIPY lipid droplet fluorescence, 18-24 h; for cell number change: measured here: cell count max response, cells fed with added oleic acid
Procedure, shortened: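 Laser-scanning cytometry quantifies lipid droplet accumulation (500–530 nm total intensity; droplet/cell object ratio) in oleic acid-fed (400 uM added) Drosophila S3 cells treated with a concentration series. 20 uM Triacsin C defined 100% inhibition.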

[1] = measured here: lipid fluorescence (Fed channel) AC50, cells fed with added oleic acid
[2] = measured here: cell number channel AC50, cells fed with added oleic acid

O=C1C(=O)N(CCc2c[nH]c3ccccc23)C(c2cccnc2)/C1=C(/O)c1ccccc1 (stereo unspecified)
cell number change: 18.1%

CC(NC(=O)c1ccco1)C(=O)N1CCCCC1 (stereo unspecified)
cell number change: -4.86% | AC50 [1]: 0.082 µM [falling, full curve, poor fit]

O=C(NCc1ccco1)[C@@H]1CCCN1C(=O)c1cccs1
cell number change: -43.3% | AC50 [2]: 29.1 µM [falling, single point]

Cc1cc(C)c(Cc2c(C)nc3c(C(=O)NCc4ccco4)cnn3c2C)c(C)c1
AC50 [1]: 5.17 µM [falling, partial curve]

O=C(COc1ccc(/C=N/NC(=O)c2ccc(O)cc2)cc1)Nc1ccc([N+](=O)[O-])cc1
cell number change: -22.4% | AC50 [2]: 3.26 µM [falling, full curve, poor fit] | AC50 [1]: 5.17 µM [falling, single point]

COc1ccc(C(CNC(=O)CCC(=O)c2ccc(C)s2)N2CCOCC2)cc1 (stereo unspecified)
cell number change: -22.3% | AC50 [2]: 0.206 µM [falling, full curve, poor fit] | AC50 [1]: 32.6 µM [falling, partial curve, poor fit]

CC(OC(=O)c1cccs1)C(=O)NCc1cccs1 (stereo unspecified)
cell number change: 2.05% | AC50 [1]: 5.8 µM [falling, single point]

COc1ccc(C(=O)N/C(=C\c2cn(C)c3ccccc23)C(=O)N2CCOCC2)cc1OC
AC50 [1]: 29.1 µM [falling, single point]

CONC(=O)C1CCN(C(=O)OCc2ccccc2)CC1
cell number change: -20.8% | AC50 [1]: 29.1 µM [falling, partial curve, poor fit]

Cc1csc(SCC(=O)N(C)C2CCS(=O)(=O)C2)n1 (stereo unspecified)
cell number change: -16.9%

O=C(O)C(CCCCN1C(=O)C2C3C=CC(C3)C2C1=O)N1C(=O)C2C3C=CC(C3)C2C1=O (stereo unspecified)
cell number change: -5.92% | AC50 [1]: 20.6 µM [falling, partial curve, poor fit]

O=P1(O)C=C(c2ccccc2)NC(c2ccccc2)=C1
cell number change: -8.09% | AC50 [2]: 6.51 µM [falling, partial curve] | AC50 [1]: 0.58 µM [falling, single point]

O=C(CN1CCC(NC(=O)c2ccccc2F)CC1)Nc1ccc2c(c1)OCO2
cell number change: -4.65%

CC(C)CCNC(=O)C1CCC(CNc2c(N3CCC(C)CC3)c(=O)c2=O)CC1 (stereo unspecified)
cell number change: 8.02%

COc1ccc(N(CC(=O)Nc2nccs2)S(=O)(=O)c2c(C)[nH]c(=O)[nH]c2=O)cc1
cell number change: 40.4% | AC50 [2]: 20.6 µM [rising, single point]

CC(=C\c1ccccc1)/C=C1/SC(=O)N(CCCC(=O)Nc2ccc(C(=O)O)cc2)C1=O
cell number change: -2.87% | AC50 [2]: 2.91 µM [falling, single point]

CNC(=O)/C=C1\NC(C)(C)Cc2ccccc21
cell number change: 68.8% | AC50 [2]: 23.1 µM [rising, single point]

S=c1[nH]nc(-c2ccccc2Cl)n1Cc1ccccc1
cell number change: -1.23%

CCN1CCN(C(=O)CN(C)S(=O)(=O)c2ccc3ccccc3c2)CC1
cell number change: 8.87%

CCn1c(SCC(=O)Nc2cccc(OC)c2)nc2c(c1=O)SCC2
cell number change: 33% | AC50 [2]: 9.2 µM [rising, partial curve] | AC50 [1]: 14.6 µM [rising, partial curve]

CCOC(=O)C1CCCN(C(=O)Cc2c(F)cccc2Cl)C1 (stereo unspecified)
cell number change: 3.31% | AC50 [1]: 6.51 µM [falling, single point]

COc1ccc(S(=O)(=O)N2CCC(C(=O)N[C@@H](C)C(=O)NC3CCCC3)CC2)cc1
cell number change: 2.66% | AC50 [1]: 29.1 µM [rising, single point]

c1ccc(-n2nnnc2SCc2ccccn2)cc1
cell number change: 43.9% | AC50 [2]: 29.1 µM [rising, single point]

CCOc1cc(C#N)c(NC(=O)c2cccnc2Cl)cc1OCC
cell number change: 27% | AC50 [2]: 1.84 µM [rising, full curve, poor fit]

Cc1nnc(SCc2cn3ccsc3n2)n(N)c1=O
cell number change: 37.7% | AC50 [2]: 5.8 µM [rising, partial curve, poor fit] | AC50 [1]: 0.411 µM [falling, single point]

O=C(NNC(=O)C1C2CCC(C2)C1C(=O)O)c1cccc(Cl)c1 (stereo unspecified)
cell number change: 28.5% | AC50 [2]: 6.51 µM [falling, single point]

COc1ccccc1C(=O)Nc1ccnn1C1CCN(Cc2ccn[nH]2)CC1
cell number change: -14.2% | AC50 [1]: 25.9 µM [falling, single point]

COc1ccc(CNC(=O)CN(C)S(=O)(=O)c2ccc(Br)s2)cc1
AC50 [1]: 29.1 µM [rising, single point]

COc1ccc(CCNC(=O)CC(=O)N/N=C/c2ccc(C(=O)O)cc2)cc1OC
cell number change: 6.74% | AC50 [1]: 0.206 µM [falling, full curve, poor fit]

Cc1cc(-c2cc(-c3ccc(Cl)cc3)on2)nc(NCC2CC2)n1
cell number change: 15.8% | AC50 [1]: 2.06 µM [rising, partial curve]

N#Cc1c(-c2ccc(Br)cc2)nc2n(c1=O)CCCS2
AC50 [2]: 0.82 µM [rising, full curve] | AC50 [1]: 0.82 µM [rising, full curve]

Cc1cccc(OCC(=O)NNC(=O)C2CCN(c3ncnc4sc(C)c(C)c34)CC2)c1
AC50 [2]: 3.66 µM [falling, single point] | AC50 [1]: 4.11 µM [falling, single point]

Fc1ccc(Br)cc1C1C=C(c2ccc(Br)cc2)Nc2ncnn21 (stereo unspecified)
AC50 [2]: 0.092 µM [rising, full curve, poor fit] | AC50 [1]: 14.6 µM [rising, partial curve, poor fit]

COc1ccc(Cl)cc1N(C(=O)Nc1cccc(Cl)c1)C1=NCC(C)S1 (stereo unspecified)
cell number change: 2.9% | AC50 [1]: 0.731 µM [falling, single point]

c1ccc(-c2noc(-c3cccnc3)n2)nc1
cell number change: 92.7% | AC50 [2]: 20.6 µM [rising, partial curve] | AC50 [1]: 14.6 µM [rising, partial curve]

NS(=O)(=O)c1ccc(NC(CNS(=O)(=O)c2ccccc2)c2ccccc2)cc1 (stereo unspecified)
AC50 [1]: 29.1 µM [rising, single point]

CN(N)C(=S)NCc1ccccc1
cell number change: -40% | AC50 [2]: 0.00461 µM [falling, full curve, poor fit] | AC50 [1]: 29.1 µM [falling, single point]

Source: PubChem BioAssay AID2685 (National Center for Advancing Translational Sciences (NCATS), 2010)
